Drawing on paper PMC5437283, this text covers binding for one molecule.

These are yes or no findings as the source states them, for the method shown. Some binding calls cover weakened binding; strength is not graded here.

The target in this assay is T1, wildtype pneumolysin (PLYWT) (Streptococcus pneumoniae), P0C2J9.
T1 chain: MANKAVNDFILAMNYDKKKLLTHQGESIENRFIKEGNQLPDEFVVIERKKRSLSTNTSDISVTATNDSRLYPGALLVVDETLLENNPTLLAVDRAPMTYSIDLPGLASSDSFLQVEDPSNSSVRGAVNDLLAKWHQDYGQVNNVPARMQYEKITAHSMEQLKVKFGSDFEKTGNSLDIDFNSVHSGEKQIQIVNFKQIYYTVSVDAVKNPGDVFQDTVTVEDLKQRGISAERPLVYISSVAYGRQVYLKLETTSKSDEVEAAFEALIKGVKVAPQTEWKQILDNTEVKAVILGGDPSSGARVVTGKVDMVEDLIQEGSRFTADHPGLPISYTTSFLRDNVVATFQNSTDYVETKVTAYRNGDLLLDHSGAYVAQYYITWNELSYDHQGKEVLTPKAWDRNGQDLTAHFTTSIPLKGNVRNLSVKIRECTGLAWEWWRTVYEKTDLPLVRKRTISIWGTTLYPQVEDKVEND
Description: negative-stain EM; 25 µg/ml PLY added to cholesterol-containing liposomes (0.5 mg/ml); stained with 1% uranyl acetate; both purified. To be noted: remark: other sources report otherwise.

B1: wildtype pneumolysin (PLYWT), P0C2J9 1-471 (natural protein)
chain: T1 chain
As for B1, the binding result was “binds”.
